Some of the results follow. The main result of the screen is listed elsewhere. These columns were measured beside it and carry no call. Most of these compounds were active or inconclusive in the main read-out, so they are no random draw. Words in brackets tell the shape of the fitted curve; partial curves, single points and poor fits give uncertain potencies.
Assay: qHTS Assay to Find Inhibitors of Chronic Active B-Cell Receptor Signaling
Settings: ABC-DLBCL IkBa-CBG/CBR reporter, luminescence ratio (green luciferase fused to IkBa over red control in TMD8 lymphoma cells), 4 h
Summary of the method: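 Compounds up to 46 uM were incubated four hours with TMD8 cells whose green CBG68 luciferase is fused to IkappaBalpha; red CBR luminescence normalised the signal, and concentration-effect curves were fitted to fusion, red and ratio data.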

[1] = measured here: CBR red luminescence, cell number
[2] = measured here: IkBa-CBG green luminescence

Structure (SMILES) | AC50 [1] | AC50 [2]
CCOc1ccc2oc(-c3ccccc3)c(C(=O)O)c2c1 | 18.4 µM [falling, single point] | 
Cc1cc(C(=O)CSc2nc(N)cc(=O)[nH]2)c(C)n1-c1ccc(OC(F)F)cc1 | 0.355 µM [falling, partial curve, poor fit] | 
Nc1c(C(=O)Nc2nc3ccccc3s2)sc2nc(-c3cccs3)ccc12 | 3.55 µM [falling, full curve, poor fit] | 
CCCCCn1c(N)c(-c2nc3ccccc3s2)c2c([N+](=O)[O-])nn(CC)c(=O)c21 | 3.66 µM [falling, full curve] | 
Cc1c(NC(=S)NC(=O)c2sc3ccccc3c2Cl)cccc1C(=O)O | 0.355 µM [falling, full curve] | 
CC(=O)Nc1nc2ccccc2n1Cc1ccccc1C | 11.6 µM [rising, partial curve, poor fit] | 
Cc1nc2cc(C(F)(F)F)ccc2n1CCNc1nc(-c2ccc([N+](=O)[O-])c(Cl)c2)cs1 | 35.5 µM [falling, single point] | 35.5 µM [rising, partial curve, poor fit]
COc1ccc(OCCNc2cc(Cl)ccc2[N+](=O)[O-])cc1 | 18.4 µM [rising, partial curve, poor fit] | 
CCCCC[C@H](O)/C=C/[C@H]1C=CC(=O)[C@@H]1C/C=C\CCCC(=O)O | 0.651 µM [rising, full curve, poor fit] | 1.84 µM [falling, full curve]
CCOc1ncccc1C(=O)OCC(=O)NCCc1ccc(S(N)(=O)=O)cc1 | 18.4 µM [rising, single point] | 
Cc1ccc2[nH]c(-c3cccc(N)c3)cc2c1 | 1.58 µM [rising, full curve, poor fit] | 
Cc1nc2sc(C(c3ccco3)N3CCC(Cc4ccccc4)CC3)c(O)n2n1 (configuration not stated) | 20.6 µM [rising, single point] | 
Cc1ccc(S(=O)(=O)N2CCN(C(=O)CCCOc3cccc(C)c3)CC2)cc1 | 13 µM [rising, partial curve] | 
Cc1cc(C(=O)Nc2ccncc2)c2ccccc2n1 | 15.8 µM [falling, single point] | 
CCOC(=O)c1[nH]c2ccc(F)cc2c1NC(=O)CN1CCc2cc(OC)c(OC)cc2C1 | 12.6 µM [falling, single point] | 
CC(=O)N1CCc2c(sc3c2c(=O)n(-c2ccccc2)c(=O)n3CC(=O)Nc2ccccc2)C1 | 0.794 µM [rising, partial curve, poor fit] | 
Cc1ccccc1NC(=O)CSc1nc2ccccc2o1 | 0.411 µM [falling, full curve, poor fit] | 
Cc1ccccc1S(=O)(=O)c1c(C)cc(C)n(C(C)C)c1=O | 11.2 µM [rising, single point] | 
CCCOc1ccc(NC(=O)C2CC(=O)N(C)C(=Nc3cccc(OC)c3)S2)cc1 (configuration not stated) | 2.82 µM [rising, partial curve, poor fit] | 
CCCC(=O)Nc1ccc2c(c1)nc(CCN1CCN(c3ccccn3)CC1)n2C | 0.112 µM [rising, full curve, poor fit] | 

Single values from the list.
For AC50 [1], CCOc1ncccc1C(=O)OCC(=O)NCCc1ccc(S(N)(=O)=O)cc1 is listed with 18.4 µM [rising, single point]
For AC50 [1], CCCOc1ccc(NC(=O)C2CC(=O)N(C)C(=Nc3cccc(OC)c3)S2)cc1 (configuration not stated) is listed with 2.82 µM [rising, partial curve, poor fit]

(next part)

Structure (SMILES) | AC50 [1] | AC50 [2]
COc1ccc2c(c1)CC/C(=C/c1ccccn1)C2=O | 12.6 µM [falling, partial curve] | 
COc1ccc2c(c1)SC(C)CC2=O (configuration not stated) | 5.8 µM [rising, partial curve, poor fit] | 
CCOC(=O)Cc1csc(/C(=N/O)C(N)=O)n1 | 4.61 µM [rising, single point] | 
CC(C)C(NS(=O)(=O)c1cccc2nsnc12)C(=O)N1CCn2c1nc1ccccc12 (configuration not stated) | 0.103 µM [falling, full curve, poor fit] | 
COC(=O)C1CCN(C(=O)COC(=O)Cc2c[nH]c3ccccc23)CC1 | 35.5 µM [falling, single point] | 
C/C(=N\NC(=O)c1ccc(O)cc1O)c1cccnc1 | 5.01 µM [falling, partial curve] | 
O=C(Nc1ccc(S(=O)(=O)NC2CCCCC2)cc1)c1ccc(Br)o1 | 29.1 µM [falling, single point] | 
Cc1cccc(NC(=O)c2ccc3c(c2)OCCO3)c1 | 7.94 µM [falling, partial curve] | 
O=C(NC1CCCCC1)/C(=N\O)c1ccccn1 | 0.562 µM [rising, full curve, poor fit] | 
O=C(CSc1nnc(Cn2nnc3ccccc32)o1)N(Cc1ccc(F)cc1)c1ccccc1 | 35.5 µM [falling, single point] | 
CC1CCN(c2nc(-c3ccccc3)c(C#N)c(=O)[nH]2)CC1 | 0.058 µM [rising, full curve, poor fit] | 
O=C(Cc1ccccc1)N/N=C/C=C/c1cccc([N+](=O)[O-])c1 | 20 µM [rising, partial curve, poor fit] | 
Cc1csc(NC(=O)NCC2CCCC(CNC(=O)Nc3nc(C)cs3)C2)n1 (configuration not stated) | 5.62 µM [falling, full curve] | 
CCNc1nc(NCC)nc(-n2nc(C)cc2C)n1 |  | 12.6 µM [falling, partial curve, poor fit]
COc1ccc(NC(=O)c2ccc(OC)cc2)cc1 | 6.31 µM [rising, single point] | 
CCOC(=O)C1(Cc2ccc(OC)cc2)CCN(C(=O)c2cc3ccccc3[nH]2)CC1 | 0.282 µM [rising, full curve, poor fit] | 
CN(C)c1ccc(/C=N/NC(=O)c2ccc(Cn3cc(Br)cn3)o2)cc1 | 4.61 µM [falling, partial curve, poor fit] | 
CCOC(=O)/C=C/[C@H]1CC2(CCO1)SCCCS2 | 29.1 µM [rising, single point] | 
O=C(N/N=C/c1cccnc1)C1CC1(c1ccccc1)c1ccccc1 (configuration not stated) | 8.91 µM [falling, partial curve] | 
O=C(NCc1ccc(F)cc1)c1ccc(CS(=O)(=O)c2ccc(Br)cc2)o1 | 35.5 µM [falling, single point] | 

Reference: PubChem BioAssay AID493014 (National Center for Advancing Translational Sciences (NCATS), 2011)
